Measurements from publication PMC8689486.
These are yes or no findings as the source states them, for the method shown. Binding seen in cells or lysates may run through a third protein. Some entries that bind do so weakly or less than the wild type.

Target: T1, ADP-ribosylation factor-like protein 15 (ARL15) (mouse (endogenous in mouse brain, iWAT and 3T3-L1)) (UniProt Q8BGR6)
T1 sequence: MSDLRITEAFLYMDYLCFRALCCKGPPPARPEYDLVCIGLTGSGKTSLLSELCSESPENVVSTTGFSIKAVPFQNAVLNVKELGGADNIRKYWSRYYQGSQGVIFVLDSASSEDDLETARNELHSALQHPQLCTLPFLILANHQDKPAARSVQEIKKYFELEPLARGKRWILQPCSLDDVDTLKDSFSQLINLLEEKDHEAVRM
Experiment: co-IP; WT mouse brain lysate precipitated with anti-ARL15 antibody and Protein G Sepharose, rabbit IgG as control; western blot for ARL6IP5

B1: ADP Ribosylation Factor like GTPase 6 Interacting Protein 5 (ARL6IP5) (protein, UniProt Q8R5J9 1-188)
chain: MDVNLAPLRAWDDFFPGSDRFARPDFRDISKWNNRVVSNLLYYQTNYLVVAAMMISVVGFLSPFNMILGGVIVVLVFMGFVWAAHNKDILRRMKKQYPTAFVMVVMLASYFLISMFGGVMVFVFGITLPLLLMFIHASLRLRNLKNKLENKMEGIGLKKTPMGIILDALEQQEDNINKFADYISKARE
- binding: binds
